Measurements from “University of Dundee, Small-Polar-MMV Screening Library” (2021), ChEMBL document CHEMBL3988442.

Protein sequences, listed by entry. Tags and fused reporters are not part of them. Residues count along the entry.
UniProt P9WNZ1, whole entry: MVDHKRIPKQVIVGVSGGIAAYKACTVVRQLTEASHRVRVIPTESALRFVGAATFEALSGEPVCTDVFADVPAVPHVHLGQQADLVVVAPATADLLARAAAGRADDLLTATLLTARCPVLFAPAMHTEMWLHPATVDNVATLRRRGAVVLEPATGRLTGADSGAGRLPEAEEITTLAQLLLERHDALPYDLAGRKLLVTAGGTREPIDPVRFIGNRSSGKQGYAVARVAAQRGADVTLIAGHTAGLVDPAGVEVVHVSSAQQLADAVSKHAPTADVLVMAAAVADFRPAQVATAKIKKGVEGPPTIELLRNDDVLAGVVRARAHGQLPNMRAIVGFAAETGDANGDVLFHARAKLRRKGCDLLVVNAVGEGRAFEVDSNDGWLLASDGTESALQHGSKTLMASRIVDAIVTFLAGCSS
UniProt I6X8D2, whole entry: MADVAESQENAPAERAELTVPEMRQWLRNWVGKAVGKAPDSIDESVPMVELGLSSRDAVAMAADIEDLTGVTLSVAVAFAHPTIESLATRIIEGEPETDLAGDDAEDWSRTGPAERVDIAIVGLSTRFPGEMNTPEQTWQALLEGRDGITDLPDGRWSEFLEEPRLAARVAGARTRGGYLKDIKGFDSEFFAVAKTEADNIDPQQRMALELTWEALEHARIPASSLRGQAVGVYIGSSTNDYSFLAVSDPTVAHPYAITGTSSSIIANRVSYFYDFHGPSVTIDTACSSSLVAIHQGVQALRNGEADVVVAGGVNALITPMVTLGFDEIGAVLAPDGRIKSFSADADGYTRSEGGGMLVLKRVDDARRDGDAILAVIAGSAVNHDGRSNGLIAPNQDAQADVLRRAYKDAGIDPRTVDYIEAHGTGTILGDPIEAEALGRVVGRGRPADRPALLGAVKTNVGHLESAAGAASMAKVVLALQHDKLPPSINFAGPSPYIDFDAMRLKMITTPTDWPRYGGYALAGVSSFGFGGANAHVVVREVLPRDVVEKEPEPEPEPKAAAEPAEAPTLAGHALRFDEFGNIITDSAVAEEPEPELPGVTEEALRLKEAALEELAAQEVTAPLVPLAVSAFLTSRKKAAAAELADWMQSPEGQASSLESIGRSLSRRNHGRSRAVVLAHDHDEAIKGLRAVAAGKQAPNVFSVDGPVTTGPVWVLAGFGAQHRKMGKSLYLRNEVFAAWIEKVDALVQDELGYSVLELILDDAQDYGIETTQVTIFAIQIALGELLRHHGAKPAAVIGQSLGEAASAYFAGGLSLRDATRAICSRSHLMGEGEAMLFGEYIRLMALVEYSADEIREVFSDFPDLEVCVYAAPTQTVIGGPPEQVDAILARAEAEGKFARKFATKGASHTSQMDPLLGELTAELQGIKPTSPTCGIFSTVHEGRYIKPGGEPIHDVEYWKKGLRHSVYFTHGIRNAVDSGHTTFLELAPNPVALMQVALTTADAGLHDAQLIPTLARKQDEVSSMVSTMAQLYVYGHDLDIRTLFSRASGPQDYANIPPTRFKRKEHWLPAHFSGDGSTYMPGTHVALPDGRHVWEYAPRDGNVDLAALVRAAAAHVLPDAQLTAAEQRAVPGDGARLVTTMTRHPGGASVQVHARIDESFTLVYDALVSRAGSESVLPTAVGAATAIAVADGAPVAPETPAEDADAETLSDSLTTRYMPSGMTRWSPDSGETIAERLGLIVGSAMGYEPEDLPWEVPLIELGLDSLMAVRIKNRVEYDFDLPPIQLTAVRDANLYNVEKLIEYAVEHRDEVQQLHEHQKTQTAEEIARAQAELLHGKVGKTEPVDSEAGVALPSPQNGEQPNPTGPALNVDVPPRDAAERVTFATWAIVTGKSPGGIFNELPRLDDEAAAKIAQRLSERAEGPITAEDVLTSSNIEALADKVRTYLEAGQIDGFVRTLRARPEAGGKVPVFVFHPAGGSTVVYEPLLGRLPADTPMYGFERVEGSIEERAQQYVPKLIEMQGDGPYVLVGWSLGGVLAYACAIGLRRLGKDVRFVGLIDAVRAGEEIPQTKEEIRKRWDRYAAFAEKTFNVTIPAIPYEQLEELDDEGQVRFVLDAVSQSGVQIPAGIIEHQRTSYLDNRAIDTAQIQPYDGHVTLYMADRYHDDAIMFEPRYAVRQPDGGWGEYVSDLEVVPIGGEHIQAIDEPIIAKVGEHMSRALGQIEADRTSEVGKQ
UniProt P9WPC5, whole entry: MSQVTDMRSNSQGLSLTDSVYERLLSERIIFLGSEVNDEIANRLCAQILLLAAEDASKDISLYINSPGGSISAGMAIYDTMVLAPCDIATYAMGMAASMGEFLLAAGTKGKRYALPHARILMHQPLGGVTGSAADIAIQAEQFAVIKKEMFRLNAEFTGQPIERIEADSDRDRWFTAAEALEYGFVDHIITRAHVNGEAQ
UniProt P9WPC3, whole entry partner: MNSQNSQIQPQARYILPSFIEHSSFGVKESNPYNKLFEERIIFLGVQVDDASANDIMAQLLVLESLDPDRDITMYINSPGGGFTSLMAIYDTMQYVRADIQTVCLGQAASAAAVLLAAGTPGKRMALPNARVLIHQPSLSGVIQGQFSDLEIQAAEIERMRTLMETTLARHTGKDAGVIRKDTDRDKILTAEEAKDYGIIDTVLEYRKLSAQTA
UniProt A4I591, 1-473: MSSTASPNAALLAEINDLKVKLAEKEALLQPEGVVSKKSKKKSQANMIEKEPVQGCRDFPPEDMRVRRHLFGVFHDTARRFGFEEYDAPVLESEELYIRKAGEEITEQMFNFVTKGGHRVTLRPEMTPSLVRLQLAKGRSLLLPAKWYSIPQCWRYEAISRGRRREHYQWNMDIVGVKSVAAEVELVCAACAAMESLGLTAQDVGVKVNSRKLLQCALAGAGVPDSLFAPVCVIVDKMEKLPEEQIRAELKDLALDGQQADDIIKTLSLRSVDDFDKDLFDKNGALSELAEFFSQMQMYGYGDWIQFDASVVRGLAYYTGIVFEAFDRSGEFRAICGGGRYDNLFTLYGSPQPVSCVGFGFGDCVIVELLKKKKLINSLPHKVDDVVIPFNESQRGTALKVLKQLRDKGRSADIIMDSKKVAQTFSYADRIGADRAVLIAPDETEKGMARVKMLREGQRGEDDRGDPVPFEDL
UniProt P9WFT3, whole entry: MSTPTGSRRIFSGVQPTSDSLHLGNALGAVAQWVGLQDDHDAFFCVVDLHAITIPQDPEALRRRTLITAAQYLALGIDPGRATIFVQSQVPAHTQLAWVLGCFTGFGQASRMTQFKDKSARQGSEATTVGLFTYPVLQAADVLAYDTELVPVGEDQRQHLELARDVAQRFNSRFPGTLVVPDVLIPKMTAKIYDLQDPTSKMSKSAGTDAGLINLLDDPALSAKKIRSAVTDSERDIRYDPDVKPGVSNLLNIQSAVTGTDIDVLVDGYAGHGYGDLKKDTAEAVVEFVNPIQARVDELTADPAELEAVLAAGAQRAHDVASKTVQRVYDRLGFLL

CoaBC: 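Coenzyme A biosynthesis protein CoaBC, Mycobacterium tuberculosis (UniProt P9WNZ1). Enzyme assay of CoaBC with a phosphate dye (Biomol Green) read at 650 nm. Concentration: 30 µM. Higher reads as stronger inhibition, judged from the few compounds that gave an IC50. Most strong results did not repeat in a second test. Size under these conditions: about 67,000 compounds, about 40 of them at 50% or above in at least one test.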
Pks13 thioesterase: 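Polyketide synthase Pks13, Mycobacterium tuberculosis (UniProt I6X8D2). Enzyme assay of the thioesterase domain of polyketide synthase 13; the read-out is not stated. Concentration: 30 µM. Higher reads as stronger inhibition (inferred from which compounds were picked for retests). Of about 67,000 compounds tested this way, about 300 (0.46%) reached 50% or more in at least one test.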
ClpP1P2: 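ClpP1P2, Mycobacterium tuberculosis (UniProt P9WPC5 and UniProt P9WPC3). Protease assay of ClpP1P2, read by the AMC dye that it sets free. Compounds at 50 µM. Higher reads as stronger inhibition, judged from the few compounds that gave an IC50. Most other retested compounds had strongly negative values. Of about 69,000 compounds tested this way, about 10 (0.015%) reached 50% or more in at least one test.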
LiHisRS: 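Enzyme assay of histidyl-tRNA synthetase; the read-out is not stated. Target: Histidine-tRNA ligase, Leishmania infantum (UniProt A4I591). Compounds at 30 µM. The record gives no direction; compounds that gave an IC50 in retests scored well above the rest, so higher reads as stronger inhibition. The assay is labelled LdHisRS but filed under L. infantum. Of about 69,000 compounds tested this way, about 410 (0.6%) reached 50% or more in at least one test.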
MtTrpRS: 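Enzyme assay of tryptophanyl-tRNA synthetase; the read-out is not stated. Target: Tryptophan-tRNA ligase, Mycobacterium tuberculosis (UniProt P9WFT3). Tested at 10 µM. Higher most likely means stronger inhibition; the record gives no direction and few retests gave an IC50. Of about 65,000 compounds tested this way, about 64 (0.098%) reached 50% or more in at least one test.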

Each number is a percent effect as filed. The record does not define 0% and 100%; most values in the screen are far below 50% and negative numbers occur (in some assays of this library far below -100). This is an unselected part of the compounds tested.

{"smiles": "CN(C)c1ncccc1CNCc1ccc(N2CCOCC2)cc1", "CoaBC": -4.911, "Pks13 thioesterase": -1.928, "ClpP1P2": 8.332, "LiHisRS": 1.042, "MtTrpRS": 8.566}
{"smiles": "Cc1cccc(-c2[nH]ncc2CNCC2CCN(CC(C)O)CC2)c1", "stereo": "stereo not given", "CoaBC": 0.1186, "Pks13 thioesterase": -18.13, "ClpP1P2": 5.354, "LiHisRS": 35.71, "MtTrpRS": 0.5477}
{"smiles": "Cc1cc(C)c(CNC(=O)N2CCCN(C(=O)C(C)C)CC2)c(C)c1", "CoaBC": 8.471, "Pks13 thioesterase": -33.32, "ClpP1P2": -3.394, "LiHisRS": 35.62, "MtTrpRS": 8.062}
{"smiles": "COC(C)C(=O)Nc1cc(C(=O)N2CCSCC2)ccc1C", "stereo": "stereo not given", "CoaBC": -0.7317, "Pks13 thioesterase": 4.038, "ClpP1P2": -22.01, "LiHisRS": 4.8, "MtTrpRS": -4.063}
{"smiles": "O=C(N1CCCC(n2cncn2)C1)C1(c2cccc(F)c2)CCCC1", "stereo": "stereo not given", "CoaBC": 5.747, "ClpP1P2": -21.49, "LiHisRS": 9.821, "MtTrpRS": 20.47}
{"smiles": "O=C1CCCN1CC1CCCCN1C(=O)Nc1cccc(F)c1", "stereo": "stereo not given", "CoaBC": -3.629, "Pks13 thioesterase": 3.219, "ClpP1P2": 1.539, "LiHisRS": 17.54, "MtTrpRS": -1.816}
{"smiles": "O=c1cc(Cn2cncn2)nc2n1CCCN(CC1CCOCC1)C2", "CoaBC": 2.24, "Pks13 thioesterase": 14.64, "ClpP1P2": 5.114, "LiHisRS": 10.53, "MtTrpRS": -3.968}
{"smiles": "O=c1[nH]c(-c2ccccn2)nc2c1CCN(Cc1cccc(O)c1)C2", "CoaBC": 0.4902, "Pks13 thioesterase": 16.55, "ClpP1P2": -9.478, "LiHisRS": 1.042}
{"smiles": "COc1cccc(-c2cc(C(=O)Nc3nc[nH]n3)[nH]n2)c1", "CoaBC": 1.211, "Pks13 thioesterase": -9.07, "ClpP1P2": -12.48, "LiHisRS": 19.57, "MtTrpRS": 1.961}
{"smiles": "COC(=O)c1ccccc1S(=O)(=O)NC(=O)c1cccc2c1OCCO2", "CoaBC": 2.433, "Pks13 thioesterase": -3.936, "ClpP1P2": -7.349, "LiHisRS": 2.469, "MtTrpRS": 0.1285}
{"smiles": "O=C1CO[C@@H]2CN(C(=O)CCc3ccccc3)C[C@H]2N1", "CoaBC": 3.053, "Pks13 thioesterase": -25.3, "ClpP1P2": -19.31, "LiHisRS": 15.53, "MtTrpRS": -3.476}
{"smiles": "COc1cc(CN2C[C@H](OC)[C@]3(CCCO3)C2)ccc1F", "CoaBC": -4.126, "Pks13 thioesterase": -25.07, "ClpP1P2": -7.892, "LiHisRS": 4.348}
{"smiles": "COC(=O)c1ccc2ccn(CC3CCNC3)c(=O)c2c1", "stereo": "stereo not given", "CoaBC": -32.62, "Pks13 thioesterase": 4.378, "ClpP1P2": -6.036, "LiHisRS": 25, "MtTrpRS": -1.069}
{"smiles": "CCc1ccc(NC(=O)c2cnc(N3CCN(C)CC3)nc2C)cc1", "CoaBC": 2.662, "Pks13 thioesterase": -10.57, "ClpP1P2": 0.1194, "LiHisRS": 10.68, "MtTrpRS": 8.049}
{"smiles": "Cc1cccc(CN2CCCC[C@H]3CN(c4ncccn4)C[C@H]32)c1", "CoaBC": 1.35, "Pks13 thioesterase": 9.823, "ClpP1P2": 3.146, "LiHisRS": 11.35, "MtTrpRS": 6.802}
{"smiles": "CN(C)CCN1C[C@@H]2CN(C(=O)C3CC=CC3)C[C@@H]2C1=O", "Pks13 thioesterase": -21.81, "ClpP1P2": -6.876, "LiHisRS": 6.838, "MtTrpRS": 2.422}
{"smiles": "CN(C)CCN(Cc1ccccn1)C(=O)Nc1cccc(F)c1", "CoaBC": -10.92, "Pks13 thioesterase": -57.64, "ClpP1P2": 4.874, "LiHisRS": 12.07, "MtTrpRS": 0.8227}
{"smiles": "CCN1CCC(CC(=O)NCc2nc(C)cc(C)n2)CC1", "CoaBC": 3.151, "Pks13 thioesterase": -24.54, "ClpP1P2": 17.33, "LiHisRS": 20, "MtTrpRS": -1.497}
{"smiles": "Cc1cc(C)n(C2CCN(c3ncnc4c3CCC4)C2)n1", "stereo": "stereo not given", "CoaBC": -7.075, "Pks13 thioesterase": -2.87, "ClpP1P2": 1.959, "LiHisRS": -3.297, "MtTrpRS": -0.3079}
{"smiles": "O=C(CCOc1ccccc1F)N1CCCC(n2cncn2)C1", "stereo": "stereo not given", "CoaBC": -1.579, "Pks13 thioesterase": -10.67, "ClpP1P2": 3.706, "LiHisRS": 13.89, "MtTrpRS": -5.348}
{"smiles": "N#CCCSc1sc2c(O)cc(O)nc2c1C#N", "CoaBC": 16.07, "Pks13 thioesterase": 15.62, "ClpP1P2": 12.37, "LiHisRS": 74.23}
{"smiles": "Cc1csc(C(C)(C)NCC(=O)N2CCCC(C(F)(F)F)C2)n1", "stereo": "stereo not given", "CoaBC": 1.304, "Pks13 thioesterase": -0.2378, "ClpP1P2": -9.231, "LiHisRS": 10.99, "MtTrpRS": 5.299}
{"smiles": "Cn1c(=O)n(C)c2nc(Cl)c(CC(=O)c3ccc(F)cc3)n2c1=O", "CoaBC": -0.4819, "Pks13 thioesterase": -1.418, "ClpP1P2": 13.27, "LiHisRS": 7.692, "MtTrpRS": -1.23}
{"smiles": "Cc1ccc(S(=O)(=O)NC[C@H]2OC[C@@H](NCc3cccnc3)[C@@H]2O)cc1", "CoaBC": 13.47, "Pks13 thioesterase": -21.22, "ClpP1P2": -7.643, "LiHisRS": 6.757, "MtTrpRS": -6.449}

Some entries from above, unchanged:

- O=C1CO[C@@H]2CN(C(=O)CCc3ccccc3)C[C@H]2N1 | CoaBC: 3.053%; Pks13 thioesterase: -25.3%; ClpP1P2: -19.31%; LiHisRS: 15.53%; MtTrpRS: -3.476%
- Cc1cc(C)n(C2CCN(c3ncnc4c3CCC4)C2)n1 (stereo not given) | CoaBC: -7.075%; Pks13 thioesterase: -2.87%; ClpP1P2: 1.959%; LiHisRS: -3.297%; MtTrpRS: -0.3079%